{"source": "the supplement of paper PMC8728848", "assay_in_all_cases": "glycan array binding signal (z-score within array); higher = stronger binding", "conditions_in_all_cases": "glycan notation: IUPAC condensed, linker removed", "key": {"Neu5Ac(a2-3)Gal(b1-4)Glc": {"molecular_target": "Neu5Ac(a2-3)Gal(b1-4)Glc", "how_it_was_run": "(§1)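 From the Consortium for Functional Glycomics database, 3228 arrays were curated, keeping only those whose protein sequence was available. Binding is given as a within-array Z-score averaged across arrays sharing a protein sequence and across linkers. Negative Z-scores can be read as non-binding.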"}, "[1]": {"molecular_target": "Neu5Ac(a2-3)Gal(b1-4)GlcNAc", "how_it_was_run": "as §1"}, "[2]": {"molecular_target": "Neu5Ac(a2-3)Gal(b1-4)GlcNAc(b1-2)Man", "how_it_was_run": "as §1"}, "[3]": {"molecular_target": "Neu5Ac(a2-3)Gal(b1-4)GlcNAc(b1-2)Man(a1-3)[GlcNAc(b1-4)][Neu5Ac(a2-3)Gal(b1-4)GlcNAc(b1-2)Man(a1-6)]Man(b1-4)GlcNAc(b1-4)GlcNAc", "how_it_was_run": "as §1"}, "[4]": {"molecular_target": "Neu5Ac(a2-3)Gal(b1-4)GlcNAc(b1-2)Man(a1-3)[Neu5Ac(a2-3)Gal(b1-4)GlcNAc(b1-2)Man(a1-6)]Man(b1-4)GlcNAc(b1-4)GlcNAc", "how_it_was_run": "as §1"}, "[5]": {"molecular_target": "Neu5Ac(a2-3)Gal(b1-4)GlcNAc(b1-2)Man(a1-3)[Neu5Ac(a2-3)Gal(b1-4)GlcNAc(b1-2)Man(a1-6)]Man(b1-4)GlcNAc(b1-4)[Fuc(a1-6)]GlcNAc", "how_it_was_run": "as §1"}, "[6]": {"molecular_target": "Neu5Ac(a2-3)Gal(b1-4)GlcNAc(b1-2)Man(a1-3)[Neu5Ac(a2-6)Gal(b1-4)GlcNAc(b1-2)Man(a1-6)]Man(b1-4)GlcNAc(b1-4)GlcNAc", "how_it_was_run": "as §1"}, "[7]": {"molecular_target": "Neu5Ac(a2-3)Gal(b1-4)GlcNAc(b1-2)[Neu5Ac(a2-3)Gal(b1-4)GlcNAc(b1-4)]Man(a1-3)[GlcNAc(b1-4)][Neu5Ac(a2-3)Gal(b1-4)GlcNAc(b1-2)[Neu5Ac(a2-3)Gal(b1-4)GlcNAc(b1-6)]Man(a1-6)]Man(b1-4)GlcNAc(b1-4)GlcNAc", "how_it_was_run": "as §1"}, "[8]": {"molecular_target": "Neu5Ac(a2-3)Gal(b1-4)GlcNAc(b1-2)[Neu5Ac(a2-3)Gal(b1-4)GlcNAc(b1-4)]Man(a1-3)[GlcNAc(b1-4)][Neu5Ac(a2-3)Gal(b1-4)GlcNAc(b1-4)Man(a1-6)]Man(b1-4)GlcNAc(b1-4)GlcNAc", "how_it_was_run": "as §1"}, "[9]": {"molecular_target": "Neu5Ac(a2-3)Gal(b1-4)GlcNAc(b1-2)[Neu5Ac(a2-3)Gal(b1-4)GlcNAc(b1-6)]Man(a1-6)[Neu5Ac(a2-3)Gal(b1-4)GlcNAc(b1-2)Man(a1-3)]Man(b1-4)GlcNAc(b1-4)GlcNAc", "how_it_was_run": "as §1"}, "[10]": {"molecular_target": "Neu5Ac(a2-3)Gal(b1-4)GlcNAc(b1-2)[Neu5Ac(a2-3)Gal(b1-4)GlcNAc(b1-6)]Man(a1-6)[Neu5Ac(a2-3)Gal(b1-4)GlcNAc(b1-2)Man(a1-3)][GlcNAc(b1-4)]Man(b1-4)GlcNAc(b1-4)GlcNAc", "how_it_was_run": "as §1"}, "[11]": {"molecular_target": "Neu5Ac(a2-3)Gal(b1-4)GlcNAc(b1-3)Gal", "how_it_was_run": "as §1"}, "[12]": {"molecular_target": "Neu5Ac(a2-3)Gal(b1-4)GlcNAc(b1-3)Gal(b1-3)GlcNAc", "how_it_was_run": "as §1"}, "[13]": {"molecular_target": "Neu5Ac(a2-3)Gal(b1-4)GlcNAc(b1-3)Gal(b1-4)GlcNAc", "how_it_was_run": "as §1"}, "[14]": {"molecular_target": "Neu5Ac(a2-3)Gal(b1-4)GlcNAc(b1-3)Gal(b1-4)GlcNAc(b1-2)Man(a1-3)[Neu5Ac(a2-3)Gal(b1-4)GlcNAc(b1-3)Gal(b1-4)GlcNAc(b1-2)Man(a1-6)]Man(b1-4)GlcNAc(b1-4)GlcNAc", "how_it_was_run": "as §1"}, "[15]": {"molecular_target": "Neu5Ac(a2-3)Gal(b1-4)GlcNAc(b1-3)Gal(b1-4)GlcNAc(b1-3)Gal(b1-4)GlcNAc", "how_it_was_run": "as §1"}, "[16]": {"molecular_target": "Neu5Ac(a2-3)Gal(b1-4)GlcNAc(b1-3)Gal(b1-4)GlcNAc(b1-3)Gal(b1-4)GlcNAc(b1-2)Man(a1-3)[Neu5Ac(a2-3)Gal(b1-4)GlcNAc(b1-3)Gal(b1-4)GlcNAc(b1-3)Gal(b1-4)GlcNAc(b1-2)Man(a1-6)]GalNAc", "how_it_was_run": "as §1"}, "[17]": {"molecular_target": "Neu5Ac(a2-3)Gal(b1-4)GlcNAc(b1-3)Gal(b1-4)GlcNAc(b1-3)GalNAc", "how_it_was_run": "as §1"}, "[18]": {"molecular_target": "Neu5Ac(a2-3)Gal(b1-4)GlcNAc(b1-3)Gal(b1-4)GlcNAc(b1-3)[Neu5Ac(a2-3)Gal(b1-4)GlcNAc(b1-3)Gal(b1-4)GlcNAc(b1-6)]GalNAc", "how_it_was_run": "as §1"}, "[19]": {"molecular_target": "Neu5Ac(a2-3)Gal(b1-4)GlcNAc(b1-3)Gal(b1-4)GlcNAc(b1-6)[Gal(b1-3)]GalNAc", "how_it_was_run": "as §1"}, "[20]": {"molecular_target": "Neu5Ac(a2-3)Gal(b1-4)GlcNAc(b1-3)Gal(b1-4)[Fuc(a1-3)]GlcNAc", "how_it_was_run": "as §1"}, "[21]": {"molecular_target": "Neu5Ac(a2-3)Gal(b1-4)GlcNAc(b1-3)GalNAc", "how_it_was_run": "as §1"}, "[22]": {"molecular_target": "Neu5Ac(a2-3)Gal(b1-4)GlcNAc(b1-3)[Neu5Ac(a2-3)Gal(b1-4)GlcNAc(b1-6)]GalNAc", "how_it_was_run": "as §1"}, "[23]": {"molecular_target": "Neu5Ac(a2-3)Gal(b1-4)GlcNAc(b1-6)GalNAc", "how_it_was_run": "as §1"}, "[24]": {"molecular_target": "Neu5Ac(a2-3)Gal(b1-4)GlcNAc(b1-6)[Gal(b1-3)]GalNAc", "how_it_was_run": "as §1"}, "[25]": {"molecular_target": "Neu5Ac(a2-3)Gal(b1-4)GlcNAc(b1-6)[Neu5Ac(a2-3)Gal(b1-3)]GalNAc", "how_it_was_run": "as §1"}, "[26]": {"molecular_target": "Neu5Ac(a2-3)Gal(b1-4)GlcNAc6S", "how_it_was_run": "as §1"}, "[27]": {"molecular_target": "Neu5Ac(a2-3)Gal(b1-4)[Fuc(a1-3)]GlcNAc", "how_it_was_run": "as §1"}, "[28]": {"molecular_target": "Neu5Ac(a2-3)Gal(b1-4)[Fuc(a1-3)]GlcNAc(b1-2)Man", "how_it_was_run": "as §1"}, "[29]": {"molecular_target": "Neu5Ac(a2-3)Gal(b1-4)[Fuc(a1-3)]GlcNAc(b1-3)Gal", "how_it_was_run": "as §1"}, "[30]": {"molecular_target": "Neu5Ac(a2-3)Gal(b1-4)[Fuc(a1-3)]GlcNAc(b1-3)Gal(b1-4)GlcNAc", "how_it_was_run": "as §1"}, "[31]": {"molecular_target": "Neu5Ac(a2-3)Gal(b1-4)[Fuc(a1-3)]GlcNAc(b1-3)Gal(b1-4)[Fuc(a1-3)]GlcNAc(b1-3)Gal(b1-4)[Fuc(a1-3)]GlcNAc", "how_it_was_run": "as §1"}, "[32]": {"molecular_target": "Neu5Ac(a2-3)Gal(b1-4)[Fuc(a1-3)]GlcNAc(b1-3)GalNAc", "how_it_was_run": "as §1"}, "[33]": {"molecular_target": "Neu5Ac(a2-3)Gal(b1-4)[Fuc(a1-3)]GlcNAc(b1-6)[Gal(b1-3)]GalNAc", "how_it_was_run": "as §1"}, "[34]": {"molecular_target": "Neu5Ac(a2-3)Gal(b1-4)[Fuc(a1-3)]GlcNAc(b1-6)[Neu5Ac(a2-3)Gal(b1-3)]GalNAc", "how_it_was_run": "as §1"}, "[35]": {"molecular_target": "Neu5Ac(a2-3)Gal(b1-4)[Fuc(a1-3)]GlcNAc6S", "how_it_was_run": "as §1"}, "[36]": {"molecular_target": "Neu5Ac(a2-3)Gal6S(b1-4)GlcNAc", "how_it_was_run": "as §1"}, "[37]": {"molecular_target": "Neu5Ac(a2-3)Gal6S(b1-4)[Fuc(a1-3)]GlcNAc", "how_it_was_run": "as §1"}}, "note": "This is one part of the list.", "data": [{"binder": "Gs78B-bfa-542-29-542 (Bacteroides fragilis) (protein) SEDINRNPLLPTKEDEKMDGVIYGAYLPNLEKSVIPIGTASESTEPVNRYQIGVNLAGDAWAGYMSPRDNKFNGSKNFTNYFMYENWVNYVYSFMVTDVYSPWMQIKRISQDEGTRNDEIYALAQIIKIAALHRTTDMFGPIPYSQVGKGSFKVAYDSQESVYRSFLKELEEAVQTLDDYSNKSKEVLPAFDIVYNGDVNKWMRFANSLMLRLAIRVRFADAGLAKEYAEKAVKHPAGLINSKELAAQMGKGAGLQMKNPLKVINEEYNDTRMGATIYSYLAGYNDARAAVYFVKNNGFKAVRCGIAKSGDAYNGFTRPNVHEDDPLYWMKASEVCFLKAEGALAGFDMGGSAGDFYNAGIRMSFSENGLDNSSAETYLKDSTRKPANYTDTSNGELSANAPSSITIRWENGATEEEKLERIITQKYLAIFPNGQEAWTEWRRTGYPRQIVVAENKTNSAVLIGNGYDLGGVRRLPYPRTEYEQNGENLHNAISQYLGGVDNAATKVWWDKKSK", "values": [{"measurement": "glycan array binding signal (z-score)", "setting": "Neu5Ac(a2-3)Gal(b1-4)Glc", "value": -0.505}, {"measurement": "glycan array binding signal (z-score)", "setting": "[1]", "value": -0.81}, {"measurement": "glycan array binding signal (z-score)", "setting": "[2]", "value": 2.92}, {"measurement": "glycan array binding signal (z-score)", "setting": "[3]", "value": -0.78}, {"measurement": "glycan array binding signal (z-score)", "setting": "[4]", "value": -0.787}, {"measurement": "glycan array binding signal (z-score)", "setting": "[5]", "value": -0.844}, {"measurement": "glycan array binding signal (z-score)", "setting": "[6]", "value": 0.41}, {"measurement": "glycan array binding signal (z-score)", "setting": "[7]", "value": -0.849}, {"measurement": "glycan array binding signal (z-score)", "setting": "[8]", "value": -0.823}, {"measurement": "glycan array binding signal (z-score)", "setting": "[9]", "value": 0.079}, {"measurement": "glycan array binding signal (z-score)", "setting": "[10]", "value": -0.835}, {"measurement": "glycan array binding signal (z-score)", "setting": "[11]", "value": -0.843}, {"measurement": "glycan array binding signal (z-score)", "setting": "[12]", "value": -0.822}, {"measurement": "glycan array binding signal (z-score)", "setting": "[13]", "value": -0.212}, {"measurement": "glycan array binding signal (z-score)", "setting": "[14]", "value": 1.91}, {"measurement": "glycan array binding signal (z-score)", "setting": "[15]", "value": -0.832}, {"measurement": "glycan array binding signal (z-score)", "setting": "[16]", "value": 0.43}, {"measurement": "glycan array binding signal (z-score)", "setting": "[17]", "value": -0.255}, {"measurement": "glycan array binding signal (z-score)", "setting": "[18]", "value": 0.912}, {"measurement": "glycan array binding signal (z-score)", "setting": "[19]", "value": 1.75}, {"measurement": "glycan array binding signal (z-score)", "setting": "[20]", "value": -0.504}, {"measurement": "glycan array binding signal (z-score)", "setting": "[21]", "value": -0.546}, {"measurement": "glycan array binding signal (z-score)", "setting": "[22]", "value": -0.818}, {"measurement": "glycan array binding signal (z-score)", "setting": "[23]", "value": 0.453}, {"measurement": "glycan array binding signal (z-score)", "setting": "[24]", "value": -0.422}, {"measurement": "glycan array binding signal (z-score)", "setting": "[25]", "value": -0.843}, {"measurement": "glycan array binding signal (z-score)", "setting": "[26]", "value": -0.24}, {"measurement": "glycan array binding signal (z-score)", "setting": "[27]", "value": -0.84}, {"measurement": "glycan array binding signal (z-score)", "setting": "[28]", "value": -0.854}, {"measurement": "glycan array binding signal (z-score)", "setting": "[29]", "value": -0.807}, {"measurement": "glycan array binding signal (z-score)", "setting": "[30]", "value": 0.919}, {"measurement": "glycan array binding signal (z-score)", "setting": "[31]", "value": -0.781}, {"measurement": "glycan array binding signal (z-score)", "setting": "[32]", "value": 0.763}, {"measurement": "glycan array binding signal (z-score)", "setting": "[33]", "value": -0.266}, {"measurement": "glycan array binding signal (z-score)", "setting": "[34]", "value": 5.64}, {"measurement": "glycan array binding signal (z-score)", "setting": "[35]", "value": -0.804}, {"measurement": "glycan array binding signal (z-score)", "setting": "[36]", "value": -0.513}, {"measurement": "glycan array binding signal (z-score)", "setting": "[37]", "value": -0.849}]}]}
